Test results published in publication doi:10.1101/2022.07.26.501514.
These are yes or no findings as the source states them, for the method shown. Some results given as binding are weak or reduced against the parent protein; the word gives no strength. For part of these data: Tags and fused reporters may be left off the sequences shown.

T1: Atg18 wildtype (Autophagy-related protein 18, Saccharomyces cerevisiae) (Saccharomyces cerevisiae), P43601
T1 chain: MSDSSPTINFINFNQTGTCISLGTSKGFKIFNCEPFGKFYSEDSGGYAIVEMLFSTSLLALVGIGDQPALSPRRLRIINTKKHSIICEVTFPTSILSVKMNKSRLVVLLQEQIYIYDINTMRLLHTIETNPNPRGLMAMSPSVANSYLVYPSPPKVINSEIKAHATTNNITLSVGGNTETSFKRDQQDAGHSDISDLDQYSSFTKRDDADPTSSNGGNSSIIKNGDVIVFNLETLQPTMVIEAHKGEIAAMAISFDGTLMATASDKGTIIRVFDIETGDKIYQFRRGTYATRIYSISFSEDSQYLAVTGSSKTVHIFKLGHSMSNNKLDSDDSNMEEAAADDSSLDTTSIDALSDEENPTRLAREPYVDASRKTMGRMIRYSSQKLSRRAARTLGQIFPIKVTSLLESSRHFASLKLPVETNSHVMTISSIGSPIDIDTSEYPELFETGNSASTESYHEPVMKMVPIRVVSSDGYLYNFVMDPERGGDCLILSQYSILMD


Tests used:
[1] = target: T1, Atg18 wildtype (Autophagy-related …); experiment: electron cryo-tomography with subtomogram averaging; details: remark: other sources report otherwise
[2] = target: T1, Atg18 wildtype (Autophagy-related …); experiment: negative stain EM; details: remark: other sources report otherwise
[3] = target: T1, Atg18 wildtype (Autophagy-related …); experiment: cryo-EM structure; details: remark: other sources report otherwise
[4] = target: T1, Atg18 wildtype (Autophagy-related …); experiment: co-sedimentation; details: remark: other sources report otherwise
[5] = target: Atg18-FGGG (FRRG motif changed to FGGG) (Saccharomyces cerevisiae) (UniProt P43601); experiment: negative stain EM
[6] = target: Atg18-FGGG (FRRG motif changed to FGGG) (Saccharomyces cerevisiae) (UniProt P43601); experiment: co-sedimentation

binding [1]	binding [2]	binding [3]	binding [4]	binding [5]	binding [6]	Binder
binds	binds	binds	binds			Atg18 wildtype (Autophagy-related protein 18, Saccharomyces cerevisiae), P43601 1-500 (natural protein) MSDSSPTINFINFNQTGTCISLGTSKGFKIFNCEPFGKFYSEDSGGYAIVEMLFSTSLLALVGIGDQPALSPRRLRIINTKKHSIICEVTFPTSILSVKMNKSRLVVLLQEQIYIYDINTMRLLHTIETNPNPRGLMAMSPSVANSYLVYPSPPKVINSEIKAHATTNNITLSVGGNTETSFKRDQQDAGHSDISDLDQYSSFTKRDDADPTSSNGGNSSIIKNGDVIVFNLETLQPTMVIEAHKGEIAAMAISFDGTLMATASDKGTIIRVFDIETGDKIYQFRRGTYATRIYSISFSEDSQYLAVTGSSKTVHIFKLGHSMSNNKLDSDDSNMEEAAADDSSLDTTSIDALSDEENPTRLAREPYVDASRKTMGRMIRYSSQKLSRRAARTLGQIFPIKVTSLLESSRHFASLKLPVETNSHVMTISSIGSPIDIDTSEYPELFETGNSASTESYHEPVMKMVPIRVVSSDGYLYNFVMDPERGGDCLILSQYSILMD
				no binding	no binding (tested: 100 uM)	Atg18-FGGG (FRRG motif changed to FGGG) (protein, UniProt P43601 1-500) MSDSSPTINFINFNQTGTCISLGTSKGFKIFNCEPFGKFYSEDSGGYAIVEMLFSTSLLALVGIGDQPALSPRRLRIINTKKHSIICEVTFPTSILSVKMNKSRLVVLLQEQIYIYDINTMRLLHTIETNPNPRGLMAMSPSVANSYLVYPSPPKVINSEIKAHATTNNITLSVGGNTETSFKRDQQDAGHSDISDLDQYSSFTKRDDADPTSSNGGNSSIIKNGDVIVFNLETLQPTMVIEAHKGEIAAMAISFDGTLMATASDKGTIIRVFDIETGDKIYQFGGGTYATRIYSISFSEDSQYLAVTGSSKTVHIFKLGHSMSNNKLDSDDSNMEEAAADDSSLDTTSIDALSDEENPTRLAREPYVDASRKTMGRMIRYSSQKLSRRAARTLGQIFPIKVTSLLESSRHFASLKLPVETNSHVMTISSIGSPIDIDTSEYPELFETGNSASTESYHEPVMKMVPIRVVSSDGYLYNFVMDPERGGDCLILSQYSILMD
